Data published in publication PMC7306619.
Results are given in words; binding and its absence hold for the method and conditions named. For some of these results: In cells and extracts the contact can be indirect. Some binding calls cover weakened binding; strength is not graded here. For some of these results: Sequences can lack the tags named with a protein.

The chains behind the UniProt entries cited, without tags or fusion partners.
UniProt Q38832: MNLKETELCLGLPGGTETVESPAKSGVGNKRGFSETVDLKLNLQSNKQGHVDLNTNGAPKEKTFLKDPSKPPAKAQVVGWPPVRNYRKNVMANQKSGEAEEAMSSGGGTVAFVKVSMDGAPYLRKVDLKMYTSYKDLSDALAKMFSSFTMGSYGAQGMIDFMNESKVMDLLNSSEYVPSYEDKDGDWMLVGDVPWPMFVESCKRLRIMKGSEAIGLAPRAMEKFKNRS

Columns and labels:
[1] = target: T1, GST‐AtDi19‐3 (Arabidopsis thaliana) (UniProt Q84J70); assay: pull-down; GST fusion or GST from bacterial lysate immobilised on GSH-Sepharose 4B and washed; about 4 ug pre-cleared bacterial extract of the 6xHis protein, 1 h at 4 C in EB (150 mM NaCl, 100 mM Tris-Cl pH 7.5, 0.5% NP40, protease inhibitor, MG132), with 5 uM IAA and 50 uM MG132 (for OsDi19-5 also without IAA); anti-His immunoblot; only the target purified
T1 sequence: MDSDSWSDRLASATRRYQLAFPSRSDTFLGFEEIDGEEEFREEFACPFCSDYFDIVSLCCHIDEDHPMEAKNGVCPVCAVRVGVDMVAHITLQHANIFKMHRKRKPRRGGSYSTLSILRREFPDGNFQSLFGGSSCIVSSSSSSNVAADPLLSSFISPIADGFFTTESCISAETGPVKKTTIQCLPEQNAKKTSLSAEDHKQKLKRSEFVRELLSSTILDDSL

[2] = target: AtIAA14/cYFPC1 (Arabidopsis thaliana) (UniProt Q38832); assay: split reporter; split EYFP (pSITE-cEYFPC1 and pSITE-nEYFPC1) co-bombarded into onion epidermal cells; confocal microscopy, fluorescence in the nucleus
[3] = target: AtIAA14 (Gal4 DNA-binding domain fusion, yeast two-hybrid) (Arabidopsis thaliana) (UniProt Q38832); assay: two-hybrid; direct test: Di19 in pGADT7 and Aux/IAA in pGBKT co-transformed in AH109; SD/-LW and SD/-HLW; HIS3 and MEL1 reporters
[4] = target: T2, AtIAA16 (Gal4 DNA-binding domain fusion, yeast two-hybrid) (Arabidopsis thaliana) (UniProt O24407); assay: as above
T2 sequence: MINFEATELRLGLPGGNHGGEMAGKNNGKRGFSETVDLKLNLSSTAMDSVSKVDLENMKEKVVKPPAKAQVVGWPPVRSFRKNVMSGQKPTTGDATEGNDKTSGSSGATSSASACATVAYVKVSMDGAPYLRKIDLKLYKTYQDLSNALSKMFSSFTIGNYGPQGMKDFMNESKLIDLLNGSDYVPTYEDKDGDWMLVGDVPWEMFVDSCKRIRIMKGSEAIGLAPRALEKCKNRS

Question: For “6xHis‐AtIAA14 (from UniProt Q38832 1-228)”, which binding [1] is on record?
Answer: The binding was “binds”.

B1: AtDi19‐3/nYFPC1 (protein, UniProt Q84J70 1-223)
chain: MDSDSWSDRLASATRRYQLAFPSRSDTFLGFEEIDGEEEFREEFACPFCSDYFDIVSLCCHIDEDHPMEAKNGVCPVCAVRVGVDMVAHITLQHANIFKMHRKRKPRRGGSYSTLSILRREFPDGNFQSLFGGSSCIVSSSSSSNVAADPLLSSFISPIADGFFTTESCISAETGPVKKTTIQCLPEQNAKKTSLSAEDHKQKLKRSEFVRELLSSTILDDSL
Question: Which binding [2] does the source give for B1 here?
Answer: Its binding is “binds”.

B2: AtDi19‐3 (Gal4 activation domain fusion, yeast two-hybrid) (protein, UniProt Q84J70 1-223)
chain: MDSDSWSDRLASATRRYQLAFPSRSDTFLGFEEIDGEEEFREEFACPFCSDYFDIVSLCCHIDEDHPMEAKNGVCPVCAVRVGVDMVAHITLQHANIFKMHRKRKPRRGGSYSTLSILRREFPDGNFQSLFGGSSCIVSSSSSSNVAADPLLSSFISPIADGFFTTESCISAETGPVKKTTIQCLPEQNAKKTSLSAEDHKQKLKRSEFVRELLSSTILDDSL
Question: For B2, which binding [3] is on record?
Answer: The binding was “binds”.

Question: What about the binding [4] of the same molecule?
Answer: Its binding is “no binding”.
